log2 fold change data for 40 targets are collected here from the supplement of paper PMC10849652.

Sequences of proteins named here, by UniProt entry; tags and fusion partners are left off. A change or cut given only in a name is not applied to a line headed by its entry.
UniProt Q13686: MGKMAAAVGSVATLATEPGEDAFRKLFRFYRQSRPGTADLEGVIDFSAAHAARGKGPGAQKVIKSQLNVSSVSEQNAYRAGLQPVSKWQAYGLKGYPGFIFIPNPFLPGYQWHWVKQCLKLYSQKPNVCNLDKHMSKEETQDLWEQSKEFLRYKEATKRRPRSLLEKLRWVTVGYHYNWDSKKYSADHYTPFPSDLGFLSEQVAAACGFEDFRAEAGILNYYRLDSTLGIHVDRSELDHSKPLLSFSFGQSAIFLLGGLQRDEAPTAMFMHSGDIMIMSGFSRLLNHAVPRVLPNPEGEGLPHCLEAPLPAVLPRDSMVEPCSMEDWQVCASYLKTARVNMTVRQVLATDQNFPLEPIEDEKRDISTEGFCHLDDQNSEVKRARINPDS
UniProt Q13367: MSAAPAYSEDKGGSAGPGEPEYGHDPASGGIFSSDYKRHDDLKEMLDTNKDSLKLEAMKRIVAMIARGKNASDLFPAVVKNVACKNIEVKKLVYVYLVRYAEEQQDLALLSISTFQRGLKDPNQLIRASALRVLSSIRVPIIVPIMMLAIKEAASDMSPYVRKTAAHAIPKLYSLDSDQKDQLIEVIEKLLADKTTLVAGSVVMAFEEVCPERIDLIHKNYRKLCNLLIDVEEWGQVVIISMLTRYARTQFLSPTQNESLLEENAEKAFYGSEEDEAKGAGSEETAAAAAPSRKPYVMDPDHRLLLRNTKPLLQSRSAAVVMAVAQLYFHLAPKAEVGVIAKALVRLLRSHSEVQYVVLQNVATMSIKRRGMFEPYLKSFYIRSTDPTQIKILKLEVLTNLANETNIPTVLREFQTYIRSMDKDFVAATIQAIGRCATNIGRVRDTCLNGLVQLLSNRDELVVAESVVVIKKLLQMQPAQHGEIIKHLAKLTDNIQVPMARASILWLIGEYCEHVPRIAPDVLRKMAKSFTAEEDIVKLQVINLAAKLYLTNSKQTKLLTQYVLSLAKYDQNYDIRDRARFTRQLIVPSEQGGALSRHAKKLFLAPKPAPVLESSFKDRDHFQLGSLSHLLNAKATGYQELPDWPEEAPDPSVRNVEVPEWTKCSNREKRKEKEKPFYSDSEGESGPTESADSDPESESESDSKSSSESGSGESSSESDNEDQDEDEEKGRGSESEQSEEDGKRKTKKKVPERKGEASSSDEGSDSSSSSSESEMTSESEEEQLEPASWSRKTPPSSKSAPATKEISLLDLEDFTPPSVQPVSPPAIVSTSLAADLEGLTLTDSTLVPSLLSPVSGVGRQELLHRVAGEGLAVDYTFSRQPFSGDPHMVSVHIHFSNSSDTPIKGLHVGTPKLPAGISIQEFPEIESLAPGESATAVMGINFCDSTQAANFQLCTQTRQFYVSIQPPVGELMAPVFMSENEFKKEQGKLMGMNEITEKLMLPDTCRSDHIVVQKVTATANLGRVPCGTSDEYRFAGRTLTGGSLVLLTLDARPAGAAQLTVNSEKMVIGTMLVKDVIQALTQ
UniProt Q96BT7: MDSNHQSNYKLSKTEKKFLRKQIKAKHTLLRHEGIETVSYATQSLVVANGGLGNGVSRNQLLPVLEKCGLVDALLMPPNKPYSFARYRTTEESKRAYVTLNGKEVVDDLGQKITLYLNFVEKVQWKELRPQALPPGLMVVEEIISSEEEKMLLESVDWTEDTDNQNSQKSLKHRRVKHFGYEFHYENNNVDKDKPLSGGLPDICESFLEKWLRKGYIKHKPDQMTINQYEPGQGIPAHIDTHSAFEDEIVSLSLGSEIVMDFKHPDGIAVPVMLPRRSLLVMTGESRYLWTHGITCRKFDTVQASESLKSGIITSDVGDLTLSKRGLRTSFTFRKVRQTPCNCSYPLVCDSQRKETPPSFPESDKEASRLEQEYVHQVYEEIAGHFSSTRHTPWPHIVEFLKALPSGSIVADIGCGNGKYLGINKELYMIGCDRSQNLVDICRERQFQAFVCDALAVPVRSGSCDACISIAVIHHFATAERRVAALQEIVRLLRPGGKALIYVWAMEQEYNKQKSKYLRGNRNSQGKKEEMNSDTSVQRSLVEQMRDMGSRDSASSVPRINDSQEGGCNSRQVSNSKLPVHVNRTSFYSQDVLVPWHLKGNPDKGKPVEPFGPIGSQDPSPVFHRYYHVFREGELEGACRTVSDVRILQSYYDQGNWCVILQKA
UniProt Q8WVL7: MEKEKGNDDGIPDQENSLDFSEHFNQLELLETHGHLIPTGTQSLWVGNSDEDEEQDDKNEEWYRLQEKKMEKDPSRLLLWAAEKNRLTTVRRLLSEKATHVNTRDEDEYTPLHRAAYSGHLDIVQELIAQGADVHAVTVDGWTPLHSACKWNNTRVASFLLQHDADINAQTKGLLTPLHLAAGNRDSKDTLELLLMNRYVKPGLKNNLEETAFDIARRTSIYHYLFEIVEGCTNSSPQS
UniProt Q9Y672: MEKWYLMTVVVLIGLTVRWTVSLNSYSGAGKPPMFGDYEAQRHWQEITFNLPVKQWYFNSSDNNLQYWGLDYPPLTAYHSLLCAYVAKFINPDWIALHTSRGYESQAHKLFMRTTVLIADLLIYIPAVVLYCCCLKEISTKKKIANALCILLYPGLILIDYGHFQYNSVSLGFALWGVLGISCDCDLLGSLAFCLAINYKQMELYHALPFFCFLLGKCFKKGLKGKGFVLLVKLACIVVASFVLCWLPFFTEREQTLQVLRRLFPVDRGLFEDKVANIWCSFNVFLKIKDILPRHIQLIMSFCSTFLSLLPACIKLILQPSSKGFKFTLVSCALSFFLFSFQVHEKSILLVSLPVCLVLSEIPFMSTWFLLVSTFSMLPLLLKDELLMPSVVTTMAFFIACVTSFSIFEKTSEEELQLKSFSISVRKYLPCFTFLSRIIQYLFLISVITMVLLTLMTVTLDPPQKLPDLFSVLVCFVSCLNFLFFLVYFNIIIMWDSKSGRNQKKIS
UniProt Q86XL3: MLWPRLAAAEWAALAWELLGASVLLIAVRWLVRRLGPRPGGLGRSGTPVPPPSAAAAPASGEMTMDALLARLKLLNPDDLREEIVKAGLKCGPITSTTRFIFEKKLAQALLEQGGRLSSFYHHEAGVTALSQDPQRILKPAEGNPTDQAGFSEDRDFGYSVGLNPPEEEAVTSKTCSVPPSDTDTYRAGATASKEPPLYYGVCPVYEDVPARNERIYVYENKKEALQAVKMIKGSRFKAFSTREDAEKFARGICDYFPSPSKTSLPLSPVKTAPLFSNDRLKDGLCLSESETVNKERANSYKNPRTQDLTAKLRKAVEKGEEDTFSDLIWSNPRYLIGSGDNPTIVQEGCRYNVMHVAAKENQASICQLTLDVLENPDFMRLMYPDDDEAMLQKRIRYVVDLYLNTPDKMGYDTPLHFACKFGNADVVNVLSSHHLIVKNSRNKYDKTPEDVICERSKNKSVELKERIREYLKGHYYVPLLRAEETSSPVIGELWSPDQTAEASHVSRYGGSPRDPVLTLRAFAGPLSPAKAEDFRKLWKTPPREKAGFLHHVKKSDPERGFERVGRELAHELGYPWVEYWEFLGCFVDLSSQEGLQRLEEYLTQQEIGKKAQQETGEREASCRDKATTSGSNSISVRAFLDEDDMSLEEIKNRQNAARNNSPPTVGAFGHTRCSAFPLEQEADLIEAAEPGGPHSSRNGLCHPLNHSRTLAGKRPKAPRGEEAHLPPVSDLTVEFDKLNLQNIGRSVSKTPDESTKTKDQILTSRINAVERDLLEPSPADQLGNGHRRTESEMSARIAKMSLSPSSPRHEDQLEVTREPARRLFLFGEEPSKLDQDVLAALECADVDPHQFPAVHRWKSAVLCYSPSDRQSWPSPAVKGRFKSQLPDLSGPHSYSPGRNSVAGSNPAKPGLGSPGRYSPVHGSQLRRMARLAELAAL
UniProt P04075: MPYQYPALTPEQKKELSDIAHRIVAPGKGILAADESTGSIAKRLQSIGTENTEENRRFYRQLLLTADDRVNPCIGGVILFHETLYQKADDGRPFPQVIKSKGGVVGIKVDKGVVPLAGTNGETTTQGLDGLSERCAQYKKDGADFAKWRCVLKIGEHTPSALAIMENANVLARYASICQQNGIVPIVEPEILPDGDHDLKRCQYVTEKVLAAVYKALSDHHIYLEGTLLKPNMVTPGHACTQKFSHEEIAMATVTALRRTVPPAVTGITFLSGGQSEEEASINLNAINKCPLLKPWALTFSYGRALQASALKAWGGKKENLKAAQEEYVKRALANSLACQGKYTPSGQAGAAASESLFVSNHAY
UniProt P53677: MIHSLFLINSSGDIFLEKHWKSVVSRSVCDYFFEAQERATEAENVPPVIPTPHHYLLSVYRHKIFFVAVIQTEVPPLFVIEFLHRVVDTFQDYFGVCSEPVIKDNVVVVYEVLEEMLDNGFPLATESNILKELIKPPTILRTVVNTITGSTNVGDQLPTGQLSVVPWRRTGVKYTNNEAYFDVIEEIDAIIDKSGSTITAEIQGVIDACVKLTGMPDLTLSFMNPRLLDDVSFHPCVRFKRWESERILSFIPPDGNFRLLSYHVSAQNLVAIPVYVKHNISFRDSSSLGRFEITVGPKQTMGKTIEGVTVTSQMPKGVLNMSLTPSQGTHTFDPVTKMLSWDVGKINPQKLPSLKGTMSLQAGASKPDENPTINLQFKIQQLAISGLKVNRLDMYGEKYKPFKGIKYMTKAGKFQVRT
UniProt Q96Q83: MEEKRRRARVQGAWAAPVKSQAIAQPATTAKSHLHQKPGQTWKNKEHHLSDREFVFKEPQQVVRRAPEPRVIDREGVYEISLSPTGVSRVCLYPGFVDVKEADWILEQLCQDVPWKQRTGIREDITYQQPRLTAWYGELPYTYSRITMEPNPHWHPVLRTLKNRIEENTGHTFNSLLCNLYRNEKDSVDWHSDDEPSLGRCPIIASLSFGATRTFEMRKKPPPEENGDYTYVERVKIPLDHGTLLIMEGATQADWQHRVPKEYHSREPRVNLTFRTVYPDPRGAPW
UniProt Q9BT22: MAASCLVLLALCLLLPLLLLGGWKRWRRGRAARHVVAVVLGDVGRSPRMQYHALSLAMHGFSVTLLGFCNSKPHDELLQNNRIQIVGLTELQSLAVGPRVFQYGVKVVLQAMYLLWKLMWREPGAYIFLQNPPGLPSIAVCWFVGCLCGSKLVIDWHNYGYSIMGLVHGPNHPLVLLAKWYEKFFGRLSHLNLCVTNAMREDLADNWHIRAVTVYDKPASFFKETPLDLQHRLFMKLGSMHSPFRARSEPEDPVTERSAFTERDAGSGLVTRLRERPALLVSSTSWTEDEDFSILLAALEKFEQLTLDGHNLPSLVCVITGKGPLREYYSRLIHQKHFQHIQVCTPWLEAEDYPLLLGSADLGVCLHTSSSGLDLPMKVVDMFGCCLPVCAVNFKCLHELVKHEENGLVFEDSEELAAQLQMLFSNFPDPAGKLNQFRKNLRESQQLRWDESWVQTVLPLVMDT
UniProt Q9NQW6: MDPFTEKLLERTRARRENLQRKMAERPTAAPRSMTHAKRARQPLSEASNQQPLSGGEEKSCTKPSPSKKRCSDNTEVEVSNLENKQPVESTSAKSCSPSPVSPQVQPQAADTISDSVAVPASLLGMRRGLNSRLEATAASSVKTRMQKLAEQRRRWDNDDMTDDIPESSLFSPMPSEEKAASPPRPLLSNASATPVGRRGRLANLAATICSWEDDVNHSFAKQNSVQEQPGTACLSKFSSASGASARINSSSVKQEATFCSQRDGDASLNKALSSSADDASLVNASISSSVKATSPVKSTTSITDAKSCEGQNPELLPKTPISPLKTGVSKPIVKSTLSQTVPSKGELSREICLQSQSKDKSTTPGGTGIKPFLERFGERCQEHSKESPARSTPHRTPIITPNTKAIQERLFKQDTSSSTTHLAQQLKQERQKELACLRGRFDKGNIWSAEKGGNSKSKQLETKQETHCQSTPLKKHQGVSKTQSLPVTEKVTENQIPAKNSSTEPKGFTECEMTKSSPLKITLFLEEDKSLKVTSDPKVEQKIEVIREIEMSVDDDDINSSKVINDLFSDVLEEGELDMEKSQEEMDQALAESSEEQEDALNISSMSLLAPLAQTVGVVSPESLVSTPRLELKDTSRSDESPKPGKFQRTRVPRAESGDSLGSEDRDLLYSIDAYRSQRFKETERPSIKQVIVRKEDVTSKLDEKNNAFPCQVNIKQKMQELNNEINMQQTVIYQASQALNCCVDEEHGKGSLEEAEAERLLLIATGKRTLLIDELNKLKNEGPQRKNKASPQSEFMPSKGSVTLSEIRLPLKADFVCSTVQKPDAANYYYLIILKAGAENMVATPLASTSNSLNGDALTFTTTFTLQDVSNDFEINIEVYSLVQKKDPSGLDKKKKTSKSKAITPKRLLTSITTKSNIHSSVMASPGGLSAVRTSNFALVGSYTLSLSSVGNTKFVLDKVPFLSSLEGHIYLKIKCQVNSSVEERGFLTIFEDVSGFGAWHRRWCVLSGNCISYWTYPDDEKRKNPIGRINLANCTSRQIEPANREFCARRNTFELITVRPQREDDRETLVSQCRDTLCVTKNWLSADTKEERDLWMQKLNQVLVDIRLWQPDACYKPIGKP

This is one part of the list.

Compound in one test: NCC(=O)Nc1ccc(-n2nc(C(F)(F)F)cc2-c2ccc3c(ccc4ccccc43)c2)cc1
Description: log2 fold change, soluble protein after heating vs DMSO (PISA); higher = thermal stabilisation; K562 lysate, 10 uM; active = over 0.2 and 3.5 SD of the protein, either way, in both replicates (recomputed). Summed up: (§1)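 K562 pellets were dounce-homogenised in PBS pH 7.4 with 1 mM MgCl2, and the crude extract at 1 mg/mL protein was treated with 10 μM compound for 30 min. Aliquots were heated for 3 min across 48°C-58°C, pooled, and brought to 0.5% NP-40 at 4°C; soluble protein was the supernatant after 21,000xg for 90 min. Soluble protein was quantified by TMTpro 16plex LC-MS/MS with channel sums equalised, and reported as log2 fold change in thermal stability against DMSO controls, with values from duplicates.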
With ALKBH1 (UniProt Q13686), the log2 fold change was inactive: -0.089.
The same measure, in the same setting: the same measure for AP3B2 isoform 4 (UniProt Q13367): inactive: 0.002; for ANXA1 (UniProt P04083): inactive: -0.013.
In the case of AMMECR1 (UniProt Q9Y4X0), the log2 fold change is inactive: 0.004.
Take ANKRD17 (UniProt O75179): the log2 fold change was inactive: 0.
For the target ANKRD30B (UniProt Q9BXX2), the log2 fold change is inactive: 0.228.
ANGEL2 (UniProt Q5VTE6): the log2 fold change is inactive: -0.013.
For the target ALKBH8 isoform 4 (UniProt Q96BT7), the log2 fold change is inactive: -0.043.
For the target ANKRD49 (UniProt Q8WVL7), the log2 fold change is inactive: -0.015.
Take ALG6 (UniProt Q9Y672): the log2 fold change is inactive: -0.258.
On to AMFR (UniProt Q9UKV5), for which the log2 fold change is inactive: -0.01.
Same read-out and setting: the same measure for AP1G2 (UniProt O75843): inactive: 0.071; for ANP32A (UniProt P39687): inactive: -0.005.
Turning to ALDOC (UniProt P09972), the log2 fold change was inactive: 0.012.
As for ANKLE2 (UniProt Q86XL3), the log2 fold change was inactive: 0.029.
Consider ANK1 isoform 14 (UniProt P16157), for which the log2 fold change was inactive: 0.037.
Still for that read-out and setting: the same measure for ANKZF1 (UniProt Q9H8Y5): inactive: -0.022.
For the target AP3D1 isoform 5 (UniProt O14617), the log2 fold change is inactive: -0.001.
ALDH2 (UniProt P05091): the log2 fold change was inactive: -0.068.
For AP2A2 isoform 2 (UniProt O94973), the log2 fold change was inactive: -0.012.
Still for that read-out and setting: the same measure for ALDH6A1 (UniProt Q02252): inactive: -0.041.
On the same count and under the same terms, for ALDOA (UniProt P04075) the value was inactive: 0.012; for AP3M2 (UniProt P53677), inactive: 0.042.
Same read-out and setting: for ALKBH6 isoform 2 (UniProt Q3KRA9) the value was inactive: 0.007; for ALKBH4 (UniProt Q9NXW9), inactive: 0.061; for ALKBH3 (UniProt Q96Q83), inactive: 0.006.
On to AP1G1 isoform 2 (UniProt O43747), for which the log2 fold change is inactive: -0.019.
Turning to ANPEP (UniProt P15144), the log2 fold change was inactive: -0.111.
In the case of ANKHD1 isoform 6 (UniProt Q8IWZ3), the log2 fold change was inactive: -0.009.
As to ALG1 (UniProt Q9BT22), the log2 fold change was inactive: -0.05.
Turning to ANKRD27 (UniProt Q96NW4), the log2 fold change was inactive: -0.066.
Same read-out and setting: the same measure for AKT2 (UniProt P31751): inactive: -0.021; for ANLN (UniProt Q9NQW6): inactive: 0.018; for AP4E1 (UniProt Q9UPM8): inactive: 0.011.
As for ALAD (UniProt P13716), the log2 fold change was inactive: 0.037.
AP2S1 (UniProt P53680): the log2 fold change was inactive: 0.012.
For the target ANKRD13D isoform 3 (UniProt Q6ZTN6), the log2 fold change is inactive: -0.072.
Consider ANXA6 (UniProt P08133), for which the log2 fold change is inactive: 0.014.
Consider ALDH1B1 (UniProt P30837), for which the log2 fold change was inactive: 0.027.
With ANGPTL4 (UniProt M0R3A2), the log2 fold change is inactive: -0.08.

Compound in a further test: O=C(CCCCCCC(=O)Nc1ccccc1)NO [vorinostat]
Described as above. Summed up: as §1
For ALKBH1 (UniProt Q13686), the log2 fold change is active: -0.284.
For the target AP3B2 isoform 4 (UniProt Q13367), the log2 fold change was inactive: -0.097.
As to ANXA1 (UniProt P04083), the log2 fold change is active: -0.255.
With AMMECR1 (UniProt Q9Y4X0), the log2 fold change is active: -0.387.
Same read-out and setting: the same measure for ANKRD17 (UniProt O75179): inactive: -0.112; for ANKRD30B (UniProt Q9BXX2): inactive: 0.147; for ANGEL2 (UniProt Q5VTE6): inactive: 0.202.
In the case of ALKBH8 isoform 4 (UniProt Q96BT7), the log2 fold change is inactive: 0.083.
Consider ANKRD49 (UniProt Q8WVL7), for which the log2 fold change is inactive: 0.093.
The same measure, in the same setting: for ALG6 (UniProt Q9Y672) the value was inactive: 0.042.
On to AMFR (UniProt Q9UKV5), for which the log2 fold change is inactive: 0.21.
On to AP1G2 (UniProt O75843), for which the log2 fold change is active: -0.31.
The same measure, in the same setting: the same measure for ANP32A (UniProt P39687): inactive: 0.08; for ALDOC (UniProt P09972): inactive: 0.11; for ANKLE2 (UniProt Q86XL3): inactive: -0.047.
Turning to ANK1 isoform 14 (UniProt P16157), the log2 fold change was inactive: -0.18.
Take ANKZF1 (UniProt Q9H8Y5): the log2 fold change was inactive: -0.037.
On to AP3D1 isoform 5 (UniProt O14617), for which the log2 fold change is inactive: -0.015.
Turning to ALDH2 (UniProt P05091), the log2 fold change was active: 0.627.
In the case of AP2A2 isoform 2 (UniProt O94973), the log2 fold change is inactive: 0.015.
On to ALDH6A1 (UniProt Q02252), for which the log2 fold change is inactive: -0.046.
The same measure, in the same setting: for ALDOA (UniProt P04075) the value was inactive: 0.13.
Same read-out and setting: for AP3M2 (UniProt P53677) the value was inactive: -0.014; for ALKBH6 isoform 2 (UniProt Q3KRA9), inactive: -0.087; for ALKBH4 (UniProt Q9NXW9), active: 0.264.
For ALKBH3 (UniProt Q96Q83), the log2 fold change is inactive: 0.104.
Turning to AP1G1 isoform 2 (UniProt O43747), the log2 fold change is inactive: 0.021.
As for ANPEP (UniProt P15144), the log2 fold change is inactive: 0.132.
Still for that read-out and setting: for ANKHD1 isoform 6 (UniProt Q8IWZ3) the value was inactive: -0.139; for ALG1 (UniProt Q9BT22), inactive: -0.13.
On to ANKRD27 (UniProt Q96NW4), for which the log2 fold change is active: -0.451.
Same read-out and setting: the same measure for AKT2 (UniProt P31751): inactive: -0.175; for ANLN (UniProt Q9NQW6): active: -0.656.
As for AP4E1 (UniProt Q9UPM8), the log2 fold change was inactive: -0.09.
Still for that read-out and setting: for ALAD (UniProt P13716) the value was inactive: 0.095; for AP2S1 (UniProt P53680), inactive: -0.02; for ANKRD13D isoform 3 (UniProt Q6ZTN6), inactive: 0.079.
The same measure, in the same setting: the same measure for ANXA6 (UniProt P08133): inactive: -0.016; for ALDH1B1 (UniProt P30837): active: 1.15.
Take ANGPTL4 (UniProt M0R3A2): the log2 fold change is inactive: 0.053.
